## Library screening results

Data taken from ChEMBL document CHEMBL3988442, “University of Dundee, Small-Polar-MMV Screening Library” (2021).

Each number is a percent effect as filed. The record does not define 0% and 100%; most values in the screen are far below 50% and negative numbers occur (in some assays of this library far below -100). The compounds are a random part of those screened. Two or more numbers in one place are separate tests of the same structure; such repeats can differ widely.

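Viability assay of Plasmodium falciparum sporozoites; the read-out is not stated. The concentration is filed as 10 mM, unlikely as a test dose, so the dose is not known. Higher reads as lower viability (inferred: compounds with an IC50 in retests scored well above the rest). Strong results were mostly tested again. Size under these conditions: about 34,000 compounds, about 280 of them at 50% or above in at least one test.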

* c1ccc(-n2ccc(CN3CCCC(Cn4cncn4)C3)n2)cc1 (stereo not shown) : -1.48%
* Cc1cc(NCCNS(=O)(=O)c2cccc(Cl)c2)nc(C)n1 : 2.625% and 6.07%
* CCC(CN1CCN(C)CC1)NC(=O)C1(c2cccc(F)c2)CC1.O=C(O)CC(O)(CC(=O)O)C(=O)O (stereo not shown) : 3.42%
* COc1ccc(C(=O)N2CCC(Nc3ccc(C)nn3)CC2)c(F)c1 : -2.864%
* CC(C)N1CCC(c2nccnc2Nc2ncccn2)CC1 : -5.757%
* CCc1nc(C)c(C(=O)NCCn2nc3ccccn3c2=O)s1 : -4.558%
* CC(C)(C)n1ncc2c(=O)n(CC(=O)NCc3ccccc3)cnc21 : 92.95% and 84.04%
* CN(Cc1ccsc1)C(=O)CS(=O)(=O)Cc1ccc(Cl)c(Cl)c1 : -5.087%
* COCCN1CCc2c(c(COc3cccnc3)nn2C)C1.O=C(O)C(F)(F)F.O=C(O)C(F)(F)F : 4.133%
* CC(=O)N1CCC(C)(c2cc(C(=O)NCC(C)(C)C)nc(C)n2)CC1 : 5.827%
* Cc1c(F)cc(C(=O)O)cc1S(=O)(=O)Nc1ccc(F)c(C#N)c1 : 5.802%
* COCCN1CCC2(CC1)CN(Cc1cccc(C)n1)C(=O)CO2 : -24.54% and 10.96% and -40.89%
* O=C(NCC(O)c1cccs1)c1cccc(Cl)c1 (stereo not shown) : -69.62% and -19.95% and -78.75%
* COc1cccc(CNC(=O)CCC2=Nc3ccccc3S(=O)(=O)N2)c1 : 5.819%
* COc1cccc(C(=O)N2CCC(Nc3ccc(C)nn3)CC2)c1 : 7.201%
* O=C(C1CCC2(CCN(Cc3cccnc3)CC2)CO1)N1CCCC1.O=C(O)C(F)(F)F.O=C(O)C(F)(F)F (stereo not shown) : 13.86%
* COCc1ccc(CNc2cncc(-n3cccn3)n2)cc1 : -1.262%
* O=C(CN1CCOC(CNc2cccnn2)C1)N1CCCCC1 (stereo not shown) : -3.716%
* O=C(O)C(F)(F)F.O=C([C@H]1CCCO1)N1CCOC2(CCCN(c3ncccc3F)C2)C1 (stereo partly shown) : -4.874%
* [H][C@@]12COC[C@]1(COc1nccc(C)n1)CN(C(=O)C1=CCCCC1)C2 : 6.579%
* CC(C)n1cnnc1CN(C)Cc1ccc(CN(C)S(C)(=O)=O)o1 : -21.69% and -27.52%
* Cc1cccc(OCC2CCCN(C(=O)Cn3ccccc3=O)C2)c1 (stereo not shown) : -10.05% and -3.564%
* COCCc1noc(Cn2c(=O)[nH]c3ccccc32)n1 : -5.952%
* CCc1cnc2c(c1Nc1ccc(OC)cc1)c(=O)n(C)c(=O)n2C : 4.358%
* COc1cccc(-c2noc(C3CCN(CC4CCCCC4)C3)n2)c1.Cl (stereo not shown) : -10.94% and -15.38% and -3.133%
* O=C(c1cccnc1N1CCCCC1)N1CCCC(n2cccn2)C1 (stereo not shown) : 6.194%
* Cc1nc(C)n(CC2CCCN2c2ncnc3ccsc23)n1 (stereo not shown) : 5.608%
* Nc1nc(C2CCN(C(=O)c3cnccn3)CC2)cs1 : 10.19%
* O=C(O)C(F)(F)F.O=C(O)C(F)(F)F.[H][C@]12CCN(c3ncccn3)CC[C@@]1([H])S(=O)(=O)CCN2Cc1cccnc1 : 2.48%
* O=C(O)C(F)(F)F.O=C(O)C(F)(F)F.[H][C@]12CCN(C(C)C)C[C@@]1([H])CN(Cc1cccnc1OC)C2 : -2.14%
* Cn1ccnc1-c1nc(N2CCCCC2)ncc1-c1ccccc1F : 4.427%
* O=C(NCCc1noc(C2CCCC2)n1)c1cn2ccsc2n1 : -10.92%
* Cn1nccc1C(=O)N1CC[C@]2(C[C@H](OCc3ccccn3)CO2)C1.O=C(O)C(F)(F)F : 10.91%
* CCOCC(=O)NCCc1ccc(I)s1 : 7.008%
* CC(CNC(=O)N1CCS(=O)(=O)CC1)Cc1cccs1 (stereo not shown) : 2.959%
* Fc1cnc(N2CCOC3(CCN(Cc4cccs4)CC3)C2)nc1.O=C(O)C(F)(F)F.O=C(O)C(F)(F)F : 18.07%
* CCc1ccc(CN(C)C(=O)C2CC(=O)N(c3cccc(O)c3)C2)nc1 (stereo not shown) : 4.298%
* CC(C)c1nc(C2CCCN2CCc2ccccn2)no1 (stereo not shown) : -2.328%
* Cc1nnc(C2Cc3ccccc3CN2Cc2c(C)noc2C)o1 (stereo not shown) : -5.476%
* O=C(O)c1ccc(F)c(S(=O)(=O)Nc2c(F)cccc2-n2cccn2)c1 : -1.502%
* CCc1ccc(CN2CCN(C)c3ncccc3C2)o1.O=C(O)C(F)(F)F.O=C(O)C(F)(F)F : -5.257%
* COc1ccccc1CN(Cc1nc2c(cnn2C)c(=O)[nH]1)C1CC1 : 2.514%
* Cc1cc(CNC(=O)N(Cc2ccc(F)cc2F)C2CC2)no1 : -0.09603%
* COc1ccc(Cl)c(-c2noc3ncn(CCC(=O)O)c(=O)c23)c1 : 0.8174%
* O=C(O)C(F)(F)F.[H][C@@]12CCC(=O)N(c3cnn(C)c3)[C@]1([H])CCN2C(=O)c1cscn1 : -6.337%
* CCS(=O)(=O)N(C)C1CCN(C(=O)c2cc(C)cc(C)c2)CC1 : 7.794%
* CCOc1ccc(CC(=O)N2CCN(c3nccn3CC)CC2)cc1.Cl : 16.03%
* [H][C@@]12C[C@H](C(=O)N3CCOCC3)[C@@]([H])(CN(S(=O)(=O)CCC)C1)O2 : -9.194%
* c1ccc(-c2noc(CCCN3CCCC3Cn3cncn3)n2)cc1 (stereo not shown) : 40.22% and 41.76% and 47.25%
* Cc1cc(C2CCCN2Cc2nc3ccccc3o2)on1 (stereo not shown) : -4.572%
* COc1cccc(-c2nc(CNCCCn3cccn3)cs2)c1 : -1.171%
* CCS(=O)(=O)N1CCN(C(=O)c2ccc(Cn3cc(Br)cn3)cc2)CC1 : -2.176%
* CC1CCc2nn(CCNC(=O)Cc3cccs3)c(=O)cc2C1 (stereo not shown) : -27.43% and 1.292% and -23.68%
* Cc1nc(N(C)C)cc(C2(C)CCCNC2)n1 (stereo not shown) : 8.085%
* CCN(CC1CCOC1)C(=O)Nc1ccc(OCC(F)(F)F)nc1 (stereo not shown) : 0.9443%
* O=C(O)C(F)(F)F.O=C(O)C(F)(F)F.O=C(c1ccncc1)N1CC2(CCNCC2)c2cc(Cl)ccc21 : 3.61%
* CCS(=O)(=O)N1CCc2c(cccc2NC(=O)NCCO)C1 : -17.16%
* Cn1cnc2c1CCN(c1ccnc(-c3ccccc3)n1)C2 : 23.08% and 36.96% and 19.93%
* CSCCC(O)C(=O)N1CCCN(Cc2cccnc2)CC1 (stereo not shown) : 9.365%